Experimental data as given in article PMC6199744, “Development of Chemical Proteomics for the Folateome and Analysis of the Kinetoplastid Folateome” (ACS Infectious Diseases, 2018).
This continues a long series; more values of the same kind are listed elsewhere.

Test system: L. major lysate proteins
Assay: Multitargeted bead mixture chemoproteomics, single concentration competition, proteome-wide
Type: binding
Conditions: vs vehicle control

Nc1nc2c(c(=O)[nH]1)N(C=O)C(CNc1ccc(C(=O)N[C@@H](CCC(=O)O)C(=O)O)cc1)CN2 (stereo partly drawn) [LEU, leucovorin]
fold change (protein LMJF.15.0240 NONSPECIFIC LIPID-TRANSFER PROTEIN, PUTATIVE,STEROL CARRIER PROTEIN, PUTATIVE): 0.87
fold change (protein LMJF.15.0950 40S RIBOSOMAL PROTEIN S3, PUTATIVE): 0.97
fold change (protein LMJF.16.0440 FUCOSE KINASE, PUTATIVE): 0.96
fold change (protein LMJF.16.0550 OROTIDINE-5-PHOSPHATE DECARBOXYLASE/OROTATE PHOSPHORIBOSYLTRANSFERASE, PUTATIVE): 0.88
fold change (protein LMJF.18.0700 HYPOTHETICAL PROTEIN, CONSERVED): 0.8
fold change (protein LMJF.18.1280 HYPOTHETICAL PROTEIN, CONSERVED): 0.9
fold change (protein LMJF.19.0060 40S RIBOSOMAL PROTEIN S2): 1.11
fold change (protein LMJF.19.0490 HYPOTHETICAL PROTEIN, CONSERVED): 0.87
fold change (protein LMJF.19.0710 GLYCOSOMAL MALATE DEHYDROGENASE): 0.96
fold change (protein LMJF.21.0250 HEXOKINASE, PUTATIVE): 0.88
fold change (protein LMJF.21.0760 […]-ATP-ASE SUBUNIT 5, PUTATIVE,19S […]): 0.7
fold change (protein LMJF.21.0800 HY[…], CONSERVED): 0.49
fold change (protein LMJF.21.1250 ADENYLATE KINASE, PUTATIVE): 0.9
fold change (protein LMJF.21.1770 ATP SYNTHASE F1 SUBUNIT GAMMA PROTEIN, PUTATIVE): 0.92
fold change (protein LMJF.21.1860 BETA TUBULIN): 0.93
fold change (protein LMJF.22.0300 HYPOTHETICAL PROTEIN, CONSERVED): 0.68
fold change (protein LMJF.22.0410 HY[…], CONSERVED): 0.8
fold change (protein LMJF.22.0620 […] SUBUNIT 5, PUTATIVE): 0.78
fold change (protein LMJF.22.0990 HYPOTHETICAL PROTEIN, CONSERVED): 1
fold change (protein LMJF.22.1290 RIBONUCLEOSIDE-DIPHOSPHATE REDUCTASE SMALL CHAIN, PUTATIVE): 0.79
fold change (protein LMJF.22.1500 ATP-DEPENDENT DEAD/H RNA HELICASE, PUTATIVE): 1.16
fold change (protein LMJF.23.0380 ATP-BINDING CASSETTE PROTEIN SUBFAMILY G, MEMBER 5, PUTATIVE): 0.96
fold change (protein LMJF.23.0830 NA/H ANTIPORTER-LIKE PROTEIN): 0.74
fold change (protein LMJF.23.1350 ACETYLTRANSFERASE-LIKE PROTEIN): 0.86
fold change (protein LMJF.25.1210 HY[…], CONSERVED): 1.01
fold change (protein LMJF.26.0280 HYPOTHETICAL PROTEIN, CONSERVED): 0.94
fold change (protein LMJF.27.0420 RIBOKINASE, PUTATIVE): 0.89
fold change (protein LMJF.27.1810 GLYCOSOMAL PHOSPHOENOLPYRUVATE CARBOXYKINASE, PUTATIVE): 1.04
fold change (protein LMJF.27.2630 ATP-DEPENDENT CLP PROTEASE SUBUNIT, HEAT SHOCK PROTEIN 78 (HSP78), PUTATIVE): 0.6
fold change (protein LMJF.28.2250 GLYCOSOMAL MEMBRANE PROTEIN-LIKE PROTEIN): 0.99
fold change (protein LMJF.29.0060 TRYPTOPHANYL-TRNA SYNTHETASE, PUTATIVE): 0.94
fold change (protein LMJF.29.1550 HYPOTHETICAL PROTEIN, CONSERVED): 0.47
fold change (protein LMJF.29.1720 HISTONE H2A, PUTATIVE): 0.92
fold change (protein LMJF.29.1830 DIHYDROLIPOAMIDE DEHYDROGENASE, PUTATIVE): 0.85
fold change (protein LMJF.29.2440 HYPOTHETICAL PROTEIN, CONSERVED): 0.75
fold change (protein LMJF.30.1010 UBIQUITIN FUSION DEGRADATION PROTEIN 2, PUTATIVE,UBIQUITIN CONJUGATION FACTOR E4 B, PUTATIVE): 0.88
fold change (protein LMJF.30.1940 SUCCINYL-COA:3-KETOACID-COENZYME A TRANSFERASE- LIKE PROTEIN): 0.93
fold change (protein LMJF.30.3110 S-ADENOSYLMETHIONINE DECARBOXYLASE): 0.85
fold change (protein LMJF.30.3190 3-HYDROXY-3-METHYLGLUTARYL-COA REDUCTASE): 0.78
fold change (protein LMJF.30.3390 CAS/CSE/IMPORTIN DOMAIN PROTEIN, PUTATIVE): 0.83
fold change (protein LMJF.31.1800 AMINO ACID PERMEASE): 0.79
fold change (protein LMJF.31.2640 2-OXOGLUTARATE DEHYDROGENASE, E3 COMPONENT, […]-LIKE PROTEIN): 0.81
fold change (protein LMJF.31.2650 ACETOIN DEHYDROGENASE E3 COMPONENT-LIKE PROTEIN): 0.82
fold change (protein LMJF.31.2970 ACETYL-COA CARBOXYLASE, PUTATIVE): 0.78
fold change (protein LMJF.31.3130 […]-COA CARBOXYLASE BIOTINYLATED […]-LIKE PROTEIN): 0.94
fold change (protein LMJF.32.0390 PROTEASOME REGULATORY NON-ATP-ASE SUBUNIT 8, PUTATIVE,26S PROTEASOME REGULATORY SUBUNIT, PUTATIVE): 0.83
fold change (protein LMJF.32.3640 HYPOTHETICAL PROTEIN, CONSERVED): 0.84
fold change (protein LMJF.33.0830 2,4-DIENOYL-COA REDUCTASE FADH1, PUTATIVE): 0.92
fold change (protein LMJF.33.1030 HYPOTHETICAL PROTEIN, CONSERVED): 0.75
fold change (protein LMJF.33.1610 PEPTIDASE M20/M25/M40, PUTATIVE): 0.82
fold change (protein LMJF.34.0010 HYPOTHETICAL PROTEIN, CONSERVED): 0.92
fold change (protein LMJF.34.3740 SERINE PALMITOYLTRANSFERASE-LIKE PROTEIN): 1.01
fold change (protein LMJF.35.1880 60S RIBOSOMAL PROTEIN L5, PUTATIVE): 1.04
fold change (protein LMJF.35.2150 HYPOTHETICAL PROTEIN, CONSERVED): 0.94
fold change (protein LMJF.35.2330 HYPOTHETICAL PROTEIN, CONSERVED): 0.73
fold change (protein LMJF.35.4550 HYPOTHETICAL PROTEIN, CONSERVED): 0.81
fold change (protein LMJF.35.4760 HYPOTHETICAL PROTEIN, CONSERVED): 0.8
fold change (protein LMJF.35.4860 HYPOTHETICAL PROTEIN, CONSERVED): 0.72
fold change (protein LMJF.35.5040 polyadenylate-binding protein 1): 0.86
fold change (protein LMJF.36.0250 EIF3-INTERACTING PROTEIN-LIKE PROTEIN): 0.83
fold change (protein LMJF.36.0320 PROTEASOME BETA 2 SUBUNIT, PUTATIVE): 0.89
fold change (protein LMJF.36.1670 HYPOTHETICAL PROTEIN, CONSERVED): 0.8
fold change (protein LMJF.36.2160 HY[…], CONSERVED): 1.13
fold change (protein LMJF.36.3760 60S RIBOSOMAL PROTEIN L10A, PUTATIVE): 1.14
fold change (protein LMJF.36.4450 MITOCHONDRIAL INTERMEDIATE PEPTIDASE, PUTATIVE,METALLO-PEPTIDASE, CLAN MA(E), FAMILY M3): 0.92
fold change (protein LMJF.36.5100 HY[…], CONSERVED): 1.02
